Article PMC9060347
Results are given in words; binding and its absence hold for the method and conditions named. Some binding calls cover weakened binding; strength is not graded here.

Biological target: human αB-crystallin (human) (UniProt P02511)
Assay: dynamic light scattering; 1 mg/mL in phosphate buffer pH 7.4; 27, 37 and 47 °C; hydrodynamic diameter of the oligomers; both purified

binding: binds
B1: human αB-crystallin (protein, UniProt P02511 1-175)
chain: MDIAIHHPWIRRPFFPFHSPSRLFDQFFGEHLLESDLFPTSTSLSPFYLRPPSFLRAPSWFDTGLSEMRLEKDRFSVNLDVKHFSPEELKVKVLGDVIEVHGKHEERQDEHGFISREFHRKYRIPADVDPLTITSSLSSDGVLTVNGPRKQVSGPERTIPITREEKPAVTAAPKK
